# According to PubChem BioAssay AID2685 (National Center for Advancing Translational Sciences (NCATS), 2010):
# The list shows a part of the results. Further columns of the screen follow, without active or inactive calls. Compounds called inactive in the main read-out are mostly missing here. Potencies come from curve fits of mixed quality, noted in brackets.
# Test: qHTS Assay for Lipid Storage Modulators in Drosophila S3 Cells;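 as to cell number change: cells counted by Cell Tracker Red CMTPX staining in the red channel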
# Conditions: BODIPY lipid droplet fluorescence, 18-24 h; for cell number change: measured here: cell count max response, cells fed with added oleic acid
# How it was run: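 Drosophila S3 cells loaded with oleic acid (400 uM, as added) and compounds at several concentrations; lipid droplets imaged by 488-nm laser-scanning cytometry, 500–530 nm intensity and object ratio to cell channel. Percent activity normalized to 20 uM Triacsin C.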
# [1] = measured here: lipid fluorescence (Fed channel) AC50, cells fed with added oleic acid
# [2] = measured here: cell number channel AC50, cells fed with added oleic acid
Compound,cell number change [%],AC50 [1],AC50 [2]
C/C(=C\C(=O)c1ccc(Br)cc1)NCc1ccccc1,23.8,"0.0411 µM [rising, full curve, poor fit]",
Cc1ccc(N(C(=O)c2ccccc2Cl)C2=NC(C)CS2)c(C)c1 (configuration not stated),-3.41,,"0.82 µM [falling, single point]"
Cc1c(C(=O)Nc2ccc(F)cc2)oc2ccc(S(=O)(=O)N3CC(C)CC(C)C3)cc12 (configuration not stated),,"6.51 µM [rising, single point]",
CN(C)CCN(C(=O)c1ccc(S(=O)(=O)N(C)CC2CCCO2)cc1)c1nc2cc3c(cc2s1)OCO3 (configuration not stated),24.6,"3.26 µM [falling, single point]",
CC1CCN(C(=O)c2ccc3ccccc3c2)CC1,2.21,"10.3 µM [falling, partial curve]",
COC(=O)c1ncn(C2OC(COC(C)=O)C(OC(C)=O)C2OC(C)=O)n1 (configuration not stated),0.244,"0.0146 µM [falling, full curve, poor fit]",
O=C(Nc1nc2ccccc2n1CCN1CCOCC1)c1ccc(COc2ccccc2Br)o1,8.47,"0.116 µM [rising, full curve, poor fit]",
COC(=O)[C@@H]1C(c2c(OC)cc(OC)cc2OC)=NO[C@H]1C(=O)OC,-3.37,"0.0731 µM [rising, full curve, poor fit]",
c1ccc(Cc2nnc(N3CCOCC3)c3ccccc23)cc1,,"0.58 µM [rising, single point]","0.731 µM [rising, full curve]"
CCc1ccc(CN2CCC(n3nccc3NC(=O)c3ccc4c(c3)OCO4)CC2)cc1,25.7,"0.58 µM [rising, single point]",
Cc1ccccc1S(=O)(=O)Cc1ccc(C(=O)N(C)C2CCCCC2)o1,,"11.6 µM [falling, partial curve, poor fit]",
CCCSc1nc(C)cc(C)c1S(C)(=O)=O,13.5,,
CCOc1ccc(-c2n[nH]c(=S)o2)cc1,60.6,"0.116 µM [rising, full curve, poor fit]","0.146 µM [rising, full curve, poor fit]"
CN(c1ccccc1)S(=O)(=O)c1cccc(C(=O)NNC(=O)c2ccncc2)c1,,"1.3 µM [rising, partial curve]","1.64 µM [rising, partial curve, poor fit]"
CCSc1nnc(NC(=O)C(CC)Oc2ccccc2)s1 (configuration not stated),-9.82,,
Cn1c(CNC(=O)c2ccco2)nnc1SCC(=O)Nc1ccc(Cl)cc1,68.3,,"20.6 µM [rising, partial curve]"
CC(C)CCN(C(=S)Nc1cccc(F)c1)C1CCN(C(C)C)CC1,-10.1,"6.51 µM [falling, single point]","3.26 µM [falling, partial curve]"
O=C(NCc1ccco1)NC12CC3CC(CC(C3)C1)C2,14.1,"29.1 µM [rising, single point]",
CCn1nc(C)cc1C(=O)N(C)C1CCCN(Cc2ccccc2F)C1 (configuration not stated),13.8,"2.06 µM [rising, partial curve, poor fit]","6.51 µM [rising, single point]"
COc1cccc(C2C(C#N)=C(N)Oc3cc(C)n(Cc4ccco4)c(=O)c32)c1 (configuration not stated),0.628,"11.6 µM [rising, single point]",

Compound,cell number change [%],AC50 [1],AC50 [2]
COc1ccc(NC(=O)CN(C)C(=O)c2oc3ccccc3c2C)cc1,4.21,,
CCCCC1=CC2=C(c3ccco3)C(=O)C(C)(OC(=O)c3ccc(OC)cc3)C(=O)C2=CN1Cc1ccc(OC)cc1 (configuration not stated),-2.27,"32.6 µM [falling, single point]",
CCN1CCN(Cc2nc3c(c(=O)n(C)c(=O)n3C)n2CC(=O)c2ccccc2)CC1,0.237,"20.6 µM [falling, partial curve]",
O=C(Nc1sc2c(c1C(=O)O)CCCC2)c1ccc(F)cc1,18.6,,
Cc1nc(NN)nc(NCc2ccccc2)n1,22.1,"0.58 µM [falling, single point]",
O=C(Oc1ccccc1F)c1ccc2c(=O)n3c(nc2c1)CCC3,22.5,,
CCOC(=O)N1CCN(CC(=O)Nc2nc3ccccc3s2)CC1,10.6,"6.51 µM [falling, single point]",
O=S(=O)(NCC1CCCO1)c1cccc2nsnc12 (configuration not stated),3.95,"23.1 µM [falling, partial curve, poor fit]",
Cc1ccc(S(=O)(=O)N2CCCC2)cc1C(=O)N1CCN(Cc2ccccc2)CC1,3.97,,
Cc1ccc(Nc2nc3c(c(=O)[nH]c(=O)n3C)n2Cc2ccc(F)cc2)cc1,-51.9,"6.51 µM [falling, partial curve]","7.31 µM [falling, partial curve]"
N#Cc1nc(-c2cccs2)oc1NCC1CCCO1 (configuration not stated),51.3,"18.4 µM [falling, partial curve]",
O=C(CCl)Nc1cc2[nH]c(=O)[nH]c2cc1Br,-1.49,,
COc1ccc(OCCCC(=O)OC(C)C(=O)Nc2ccc(S(N)(=O)=O)cc2)cc1 (configuration not stated),-20.2,"18.4 µM [falling, single point]",
NC1=NC2(CCCC2)N=C(Nc2ccccc2)N1,11.9,"16.4 µM [rising, partial curve]",
O=[N+]([O-])/C(C(Cl)=C(Cl)Cl)=C(\Sc1ccccc1)N1CCCCC1,-7.57,"3.66 µM [falling, partial curve, poor fit]",
O=C(CCc1nc2ccccc2c(=O)[nH]1)N1CCN(S(=O)(=O)c2cccc(F)c2)CC1,-13.8,"6.51 µM [falling, single point]",
COCCCn1cnnc1SCC(=O)Nc1ccc(S(=O)(=O)N2CCCC2)cc1,1.39,,
Cc1c(OCC(=O)N[C@@H](Cc2c[nH]c3ccccc23)C(=O)O)ccc2c1oc(=O)c1ccccc12,-14.6,"0.092 µM [falling, full curve, poor fit]",
CCOc1ccc(OCC)c(NC(=O)C(NS(=O)(=O)c2ccc3c(c2)oc(=O)n3C)C(C)C)c1 (configuration not stated),30.7,,"5.8 µM [rising, partial curve]"

# Quoted from above for reference:
Compound,cell number change [%],AC50 [1],AC50 [2]
O=C(Nc1sc2c(c1C(=O)O)CCCC2)c1ccc(F)cc1,18.6,,
Cc1nc(NN)nc(NCc2ccccc2)n1,22.1,"0.58 µM [falling, single point]",
